Drawing on PMC10235437, this text covers binding for one substance.

Amino acid sequences for entries named in this document (tags omitted).
UniProt Q13951: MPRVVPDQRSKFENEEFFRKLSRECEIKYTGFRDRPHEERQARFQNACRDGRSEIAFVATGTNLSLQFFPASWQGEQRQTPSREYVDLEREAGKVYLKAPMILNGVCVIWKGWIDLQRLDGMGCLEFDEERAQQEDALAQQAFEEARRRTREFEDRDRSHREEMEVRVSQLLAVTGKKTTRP

No constants are given. Whether binding was seen depends on the method and setting. Binding seen in cells or lysates may run through a third protein. These calls come from enrichment with a bait or labelling near it, and not all partners need be listed.

In this assay the target is T1, E2F transcription factor 7 (E2F7), endogenous (human (endogenous in HONE-1 and SUNE-1)) (UniProt Q96AV8).
T1 sequence: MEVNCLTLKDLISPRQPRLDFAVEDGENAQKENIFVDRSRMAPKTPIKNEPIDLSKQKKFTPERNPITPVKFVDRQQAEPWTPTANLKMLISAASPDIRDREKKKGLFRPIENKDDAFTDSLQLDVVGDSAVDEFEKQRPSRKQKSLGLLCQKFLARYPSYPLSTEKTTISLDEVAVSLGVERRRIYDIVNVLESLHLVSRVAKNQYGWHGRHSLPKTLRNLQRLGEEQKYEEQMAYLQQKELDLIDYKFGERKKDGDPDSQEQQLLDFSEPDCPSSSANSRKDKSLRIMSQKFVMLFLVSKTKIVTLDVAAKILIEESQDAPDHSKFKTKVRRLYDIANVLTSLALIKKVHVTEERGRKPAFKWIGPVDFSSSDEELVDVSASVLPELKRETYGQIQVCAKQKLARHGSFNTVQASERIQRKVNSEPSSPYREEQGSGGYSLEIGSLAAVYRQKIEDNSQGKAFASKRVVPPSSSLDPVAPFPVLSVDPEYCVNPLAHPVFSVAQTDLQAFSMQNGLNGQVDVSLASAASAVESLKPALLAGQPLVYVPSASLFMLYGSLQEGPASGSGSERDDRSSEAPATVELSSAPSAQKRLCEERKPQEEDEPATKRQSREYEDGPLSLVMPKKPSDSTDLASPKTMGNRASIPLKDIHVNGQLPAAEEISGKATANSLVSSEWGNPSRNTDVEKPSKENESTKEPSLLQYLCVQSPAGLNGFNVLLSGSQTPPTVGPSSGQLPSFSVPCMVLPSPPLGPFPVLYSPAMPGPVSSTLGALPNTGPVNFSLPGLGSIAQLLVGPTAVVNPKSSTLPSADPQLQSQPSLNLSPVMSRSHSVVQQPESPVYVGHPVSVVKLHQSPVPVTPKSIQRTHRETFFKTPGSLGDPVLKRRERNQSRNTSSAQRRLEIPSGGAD
Put plainly: affinity purification with mass spectrometry; E2F7 immunoprecipitated from HONE-1 cell lysate (Pierce Co-Immunoprecipitation Kit, 4 °C overnight), immunocomplexes analysed by mass spectrometry.

For the substance “Core-binding factor subunit beta (CBFB), endogenous (from UniProt Q13951 1-182)”, the binding entry is “binds”.
